# Reference: the supplement of paper PMC8728848
# The other results are listed elsewhere or left out.
# B1: pTFF2 (Sus scrofa), P01359 (protein)
# chain: KPAACRCSRQDPKNRVNCGFPGITSDQCFTSGCCFDSQVPGVPWCFKPLPAQESEECVMEVSARKNCGYPGISPEDCAARNCCFSDTIPEVPWCFFPMSVEACHY
# Experiments:
# Experiment in all cases: glycan array binding signal (z-score within array); higher = stronger binding
# Settings in all cases: glycan notation: IUPAC condensed, linker removed
# [1] = biological target: GlcNAc(b1-4)GlcNAc(b1-4)GlcNAc(b1-4)GlcNAc(b1-4)GlcNAc
# Procedure, shortened: (§1)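 Negative Z-scores can be read as non-binding. The Z-score is calculated within each array and then averaged across arrays of one protein sequence at different concentrations or buffers and across linkers. Arrays, 3228 in all, were curated from the Consortium for Functional Glycomics database and kept only where the protein sequence was available.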
# [2] = biological target: GlcNAc(b1-4)GlcNAc(b1-4)GlcNAc(b1-4)GlcNAc(b1-4)GlcNAc(b1-4)GlcNAc
# Procedure, shortened: as §1
# [3] = biological target: GlcNAc(b1-4)[GlcNAc(b1-6)]GalNAc
# Procedure, shortened: as §1
# [4] = biological target: GlcNAc(b1-6)Gal(b1-4)GlcNAc
# Procedure, shortened: as §1
# [5] = biological target: GlcNAc(b1-6)GalNAc
# Procedure, shortened: as §1
# [6] = biological target: GlcNAc6S(b1-3)Gal(b1-4)GlcNAc
# Procedure, shortened: as §1
# [7] = biological target: Kdn(a2-3)Gal(b1-3)GalNAc
# Procedure, shortened: as §1
# [8] = biological target: Kdn(a2-3)Gal(b1-3)GlcNAc
# Procedure, shortened: as §1
# [9] = biological target: Kdn(a2-3)Gal(b1-4)Glc
# Procedure, shortened: as §1
# [10] = biological target: Kdn(a2-3)Gal(b1-4)GlcNAc
# Procedure, shortened: as §1
# [11] = biological target: Kdn(a2-3)Gal(b1-4)[Fuc(a1-3)]GlcNAc
# Procedure, shortened: as §1
# [12] = biological target: Kdn(a2-6)Gal(b1-4)GlcNAc
# Procedure, shortened: as §1
# [13] = biological target: Man(a1-2)Man(a1-2)Man(a1-3)Man
# Procedure, shortened: as §1
# [14] = biological target: Man(a1-2)Man(a1-2)Man(a1-6)[Man(a1-3)]Man
# Procedure, shortened: as §1
# [15] = biological target: Man(a1-2)Man(a1-3)Man
# Procedure, shortened: as §1
# [16] = biological target: Man(a1-2)Man(a1-3)[Man(a1-2)Man(a1-6)]Man
# Procedure, shortened: as §1
# [17] = biological target: Man(a1-2)Man(a1-3)[Man(a1-2)Man(a1-6)]Man(a1-6)[Man(a1-2)Man(a1-2)Man(a1-3)]Man
# Procedure, shortened: as §1
# [18] = biological target: Man(a1-2)Man(a1-3)[Man(a1-2)Man(a1-6)]Man(a1-6)[Man(a1-2)Man(a1-2)Man(a1-3)]Man(b1-4)GlcNAc(b1-4)GlcNAc
# Procedure, shortened: as §1
# [19] = biological target: Man(a1-2)Man(a1-3)[Man(a1-6)]Man(a1-6)[Man(a1-2)Man(a1-3)]Man(b1-4)GlcNAc(b1-4)GlcNAc
# Procedure, shortened: as §1
# [20] = biological target: Man(a1-2)Man(a1-6)[Man(a1-3)]Man(a1-6)[Man(a1-2)Man(a1-2)Man(a1-3)]Man
# Procedure, shortened: as §1
# [21] = biological target: Man(a1-2)Man(a1-6)[Man(a1-3)]Man(a1-6)[Man(a1-2)Man(a1-2)Man(a1-3)]Man(b1-4)GlcNAc(b1-4)GlcNAc
# Procedure, shortened: as §1
# [22] = biological target: Man(a1-3)[Man(a1-6)]Man
# Procedure, shortened: as §1
# [23] = biological target: Man(a1-3)[Man(a1-6)]Man(a1-6)[Man(a1-2)Man(a1-3)]Man(b1-4)GlcNAc(b1-4)GlcNAc
# Procedure, shortened: as §1
# [24] = biological target: Man(a1-3)[Man(a1-6)]Man(a1-6)[Man(a1-3)]Man
# Procedure, shortened: as §1
# [25] = biological target: Man(a1-3)[Man(a1-6)]Man(a1-6)[Man(a1-3)]Man(b1-4)GlcNAc(b1-4)GlcNAc
# Procedure, shortened: as §1
# [26] = biological target: Man(a1-3)[Man(a1-6)]Man(b1-4)GlcNAc(b1-4)GlcNAc
# Procedure, shortened: as §1
# [27] = biological target: Man(a1-3)[Man(a1-6)]Man(b1-4)GlcNAc(b1-4)[Fuc(a1-6)]GlcNAc
# Procedure, shortened: as §1
# [28] = biological target: Man(a1-6)Man
# Procedure, shortened: as §1
# [29] = biological target: Man(b1-4)GlcNAc
# Procedure, shortened: as §1
# [30] = biological target: MurNAc(b1-4)GlcNAc
# Procedure, shortened: as §1
# [31] = biological target: Neu5Ac(a2-3)Gal
# Procedure, shortened: as §1
# [32] = biological target: Neu5Ac(a2-3)Gal(b1-3)GalNAc
# Procedure, shortened: as §1
# [33] = biological target: Neu5Ac(a2-3)Gal(b1-3)GalNAc(b1-3)Gal(a1-4)Gal(b1-4)Glc
# Procedure, shortened: as §1
# [34] = biological target: Neu5Ac(a2-3)Gal(b1-3)GalNAc(b1-4)Gal(b1-4)Glc
# Procedure, shortened: as §1
# [35] = biological target: Neu5Ac(a2-3)Gal(b1-3)GalNAc(b1-4)[Neu5Ac(a2-3)]Gal(b1-4)Glc
# Procedure, shortened: as §1
# [36] = biological target: Neu5Ac(a2-3)Gal(b1-3)GalNAc(b1-4)[Neu5Ac(a2-8)Neu5Ac(a2-3)]Gal(b1-4)Glc
# Procedure, shortened: as §1
# [37] = biological target: Neu5Ac(a2-3)Gal(b1-3)GalNAc6S
# Procedure, shortened: as §1
# [38] = biological target: Neu5Ac(a2-3)Gal(b1-3)GlcNAc
# Procedure, shortened: as §1
# [39] = biological target: Neu5Ac(a2-3)Gal(b1-3)GlcNAc(b1-2)Man
# Procedure, shortened: as §1
# [40] = biological target: Neu5Ac(a2-3)Gal(b1-3)GlcNAc(b1-2)Man(a1-3)[GlcNAc(b1-4)][Neu5Ac(a2-3)Gal(b1-3)GlcNAc(b1-2)Man(a1-6)]Man(b1-4)GlcNAc(b1-4)GlcNAc
# Procedure, shortened: as §1
# [41] = biological target: Neu5Ac(a2-3)Gal(b1-3)GlcNAc(b1-2)Man(a1-3)[Neu5Ac(a2-3)Gal(b1-3)GlcNAc(b1-2)Man(a1-6)]Man(b1-4)GlcNAc(b1-4)GlcNAc
# Procedure, shortened: as §1
# [42] = biological target: Neu5Ac(a2-3)Gal(b1-3)GlcNAc(b1-2)[Neu5Ac(a2-3)Gal(b1-3)GlcNAc(b1-4)]Man(a1-6)[Neu5Ac(a2-3)Gal(b1-3)GlcNAc(b1-2)Man(a1-3)]Man(b1-4)GlcNAc(b1-4)GlcNAc
# Procedure, shortened: as §1
# [43] = biological target: Neu5Ac(a2-3)Gal(b1-3)GlcNAc(b1-3)Gal(b1-3)GlcNAc
# Procedure, shortened: as §1
# [44] = biological target: Neu5Ac(a2-3)Gal(b1-3)GlcNAc(b1-3)Gal(b1-4)GlcNAc
# Procedure, shortened: as §1
# [45] = biological target: Neu5Ac(a2-3)Gal(b1-3)GlcNAc(b1-3)GalNAc
# Procedure, shortened: as §1
binder,measurement,setting,value
B1,glycan array binding signal (z-score),[1],-0.168
same,glycan array binding signal (z-score),[2],-0.364
same,glycan array binding signal (z-score),[3],-1.57
same,glycan array binding signal (z-score),[4],-0.456
same,glycan array binding signal (z-score),[5],-0.621
same,glycan array binding signal (z-score),[6],0.592
same,glycan array binding signal (z-score),[7],0.467
same,glycan array binding signal (z-score),[8],-0.672
same,glycan array binding signal (z-score),[9],-0.746
same,glycan array binding signal (z-score),[10],0.544
same,glycan array binding signal (z-score),[11],1.11
same,glycan array binding signal (z-score),[12],0.54
same,glycan array binding signal (z-score),[13],1.44
same,glycan array binding signal (z-score),[14],1.33
same,glycan array binding signal (z-score),[15],-0.923
same,glycan array binding signal (z-score),[16],-1.11
same,glycan array binding signal (z-score),[17],-0.502
same,glycan array binding signal (z-score),[18],0.438
same,glycan array binding signal (z-score),[19],-0.442
same,glycan array binding signal (z-score),[20],0.712
same,glycan array binding signal (z-score),[21],-1.11
same,glycan array binding signal (z-score),[22],-1.26
same,glycan array binding signal (z-score),[23],0.578
same,glycan array binding signal (z-score),[24],0.025
same,glycan array binding signal (z-score),[25],-0.224
same,glycan array binding signal (z-score),[26],0.69
same,glycan array binding signal (z-score),[27],-0.079
same,glycan array binding signal (z-score),[28],1
same,glycan array binding signal (z-score),[29],-0.36
same,glycan array binding signal (z-score),[30],-0.243
same,glycan array binding signal (z-score),[31],0.835
same,glycan array binding signal (z-score),[32],-0.363
same,glycan array binding signal (z-score),[33],0.055
same,glycan array binding signal (z-score),[34],0.567
same,glycan array binding signal (z-score),[35],0.668
same,glycan array binding signal (z-score),[36],-0.871
same,glycan array binding signal (z-score),[37],-1.6
same,glycan array binding signal (z-score),[38],-0.426
same,glycan array binding signal (z-score),[39],-1.49
same,glycan array binding signal (z-score),[40],-0.153
same,glycan array binding signal (z-score),[41],-1.01
same,glycan array binding signal (z-score),[42],-0.884
same,glycan array binding signal (z-score),[43],1.93
same,glycan array binding signal (z-score),[44],-0.844
same,glycan array binding signal (z-score),[45],-0.321

# 3 records drawn at random from those above, as already listed:
binder,measurement,setting,value
B1,glycan array binding signal (z-score),[42],-0.884
same,glycan array binding signal (z-score),[37],-1.6
same,glycan array binding signal (z-score),[30],-0.243
